No constants are given. Whether binding was seen depends on the method and setting. Binding calls can cover weak binding; strength is not graded here.
Target: T1, S. enterica PNPase core (Salmonella enterica serovar Typhimurium) (UniProt Q8ZLT3)
T1 sequence: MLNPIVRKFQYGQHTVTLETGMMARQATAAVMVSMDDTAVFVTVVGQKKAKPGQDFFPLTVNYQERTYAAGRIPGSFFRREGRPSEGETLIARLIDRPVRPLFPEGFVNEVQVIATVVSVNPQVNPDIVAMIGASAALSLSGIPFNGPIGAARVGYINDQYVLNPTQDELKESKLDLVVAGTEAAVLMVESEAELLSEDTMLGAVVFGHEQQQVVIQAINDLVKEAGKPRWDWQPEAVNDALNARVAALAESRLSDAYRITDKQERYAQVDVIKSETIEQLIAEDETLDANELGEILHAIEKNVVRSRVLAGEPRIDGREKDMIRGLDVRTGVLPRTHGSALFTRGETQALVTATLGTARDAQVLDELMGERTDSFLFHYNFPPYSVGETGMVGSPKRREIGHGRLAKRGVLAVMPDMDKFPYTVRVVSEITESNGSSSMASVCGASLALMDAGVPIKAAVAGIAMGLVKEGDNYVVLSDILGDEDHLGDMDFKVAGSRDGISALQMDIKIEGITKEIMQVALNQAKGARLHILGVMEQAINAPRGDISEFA
Assay: cryo-EM structure; purified PNPase core and RNase E-muGFP-CHis mixed 1:2, complex separated on Superdex 200 Increase in 20 mM Tris–HCl pH 8.0, 25 mM MgCl2, 150 mM KCl, 1 mM TCEP; 8 mM CHAPSO; E. coli and S. enterica proteins; both purified

**Q.** “S. enterica RNase E 921–1067-muGFP (Salmonella enterica serovar Typhimurium) (domain or fragment)” was tested. Which binding did it give?
**A.** binds
